# Measurements taken from PubChem BioAssay AID504467 (National Center for Advancing Translational Sciences (NCATS), 2011).
# Among all 330,000 compounds or so, about 7,700 (2.3%) were called active. Inconclusive results, whose numbers are uncertain, are shown with a selection of clear calls. The call rests on the fitted dose curve; in most records, active means well fitted inhibition curve with a large enough effect; inconclusive means small, poorly fitted or top-dose-only effect, or effect the other way; inactive means flat fitted curve, though single readings scatter. Where the call is inconclusive, the potency comes from a doubtful curve fit.
# Assay: qHTS screen for small molecules that inhibit ELG1-dependent DNA repair in human embryonic kidney (HEK293T) cells expressing luciferase-tagged ELG1; further: nearly all actives have a fitted effect of over 55% in size
# Details: HEK293T ELG1-luciferase reporter, luminescence, 16 h, DNA damage induced by 5-fluorouridine; activity change, negative = inhibition: at 46.1 µM (top of the series)
# Method in brief: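 In this reporter screen, reduction of luminescence relative to DMSO vehicle indicated activity. Compounds and 5-fluorouridine were added together to 2,000 cells per well, incubated for 16 hr at 37 °C, then developed with ONE-Glo.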
# On the % scale 0 is the no-effect control and ±100 the full control effect; potency means the concentration at half of the fitted maximal effect.
SMILES,Potency,"activity change, negative = inhibition"
O=S(=O)(c1cccc2nonc12)N1CCN(c2ccc(F)cc2)CC1,"inconclusive: 32.6 µM [inhibitor, partial curve, poor fit]",–
CC(=O)Nc1cccc(-c2nnc(SCC(=O)N3CCCCC3)n2C)c1,"inconclusive: 18.4 µM [activator, partial curve, poor fit]",–
O=[N+]([O-])c1cc(-c2ccc(C(=S)N3CCOCC3)o2)ccc1Cl,"inconclusive: 29.1 µM [activator, single point]",–
CCc1cc2c(=O)c(-c3nc4ccccc4[nH]3)coc2c(CN2CCCCC2)c1O,"inconclusive: 1.03 µM [inhibitor, single point]",–
O=C(COc1ccccc1)Nc1ncn[nH]1,"inconclusive: 25.9 µM [activator, partial curve]",–
Cc1cc(C)cc(OCC(=O)Nc2cccc(C(=O)O)c2)c1,"inconclusive: 23.1 µM [activator, partial curve]",–
COc1cc(C2CC(=O)c3c([nH]c(C(=O)OCCOC(C)C)c3C)C2)cc(OC)c1OC (centres undefined),active: 10.3 µM,–
Cc1cccc(C(CC(=O)NCc2ccco2)c2ccccc2)c1O (centres undefined),–,inactive: -16.1%
C/C(=N\NC(=O)COc1ccc(C(C)(C)C)cc1)c1cc2ccccc2o1,"inconclusive: 5.17 µM [activator, full curve]",–
Cc1ccc(C(=O)C[n+]2ccc3ccccc3c2)cc1,"inconclusive: 7.3 µM [activator, partial curve]",–
O=C(Nc1cccc(O)c1)c1cccc(C(=O)Nc2cccc(O)c2)c1,–,inactive: -6.34%
COc1ccc(C(C(=O)NC2CCCCC2)N(C(=O)CCl)c2cccc(Cl)c2)cc1 (centres undefined),"inconclusive: 23.1 µM [inhibitor, partial curve]",–
COc1ccc(CC(=O)Nc2ccc3c(c2)CCC3)cc1OC,active: 10.3 µM,–
Fc1ccc(-n2nnc(-c3ccccc3Br)n2)cc1,–,inactive: 6.26%
Oc1ccccc1-c1cc(-c2cccc(F)c2)n[nH]1,"inconclusive: 3.66 µM [activator, full curve]",–
CCc1ccc(OCC(=O)Nc2ccncc2)c(Br)c1,"inconclusive: 0.708 µM [activator, full curve, poor fit]",–
Cc1ccc(N2CCN(C(=O)c3ccccc3NC(=O)c3ccccc3C(=O)O)CC2)cc1,"inconclusive: 29.1 µM [activator, single point]",–
O=C(CCS(=O)(=O)c1cccs1)Nc1ccc(C(=O)NC2CCCC2)cc1,–,inactive: -22.1%
CCOc1ccc(NC(=O)C2C(C(=O)O)C3(Cl)C(Cl)=C(Cl)C2(Cl)C3(Cl)Cl)cc1 (centres undefined),–,inactive: 5.96%
CC(C)NC(=O)c1nc2ccccc2s1,"inconclusive: 8.2 µM [activator, partial curve]",–
COc1cc(NC(=O)c2ccccc2)ccc1NC(=O)c1cc2ccccc2o1,"inconclusive: 18.3 µM [activator, partial curve, poor fit]",–
NC(=O)C1CCCN(C(=O)CCC(=O)c2cccs2)C1 (centres undefined),–,inactive: 1.79%
O=C(COc1ccccc1/C=C1/NC(=O)NC1=O)Nc1ccccc1,–,inactive: -2.66%

# A draw from above in order of molecular weight, ascending.
SMILES,Potency,"activity change, negative = inhibition"
Cc1ccc(C(=O)C[n+]2ccc3ccccc3c2)cc1,"inconclusive: 7.3 µM [activator, partial curve]",–
Cc1ccc(N2CCN(C(=O)c3ccccc3NC(=O)c3ccccc3C(=O)O)CC2)cc1,"inconclusive: 29.1 µM [activator, single point]",–
COc1ccc(C(C(=O)NC2CCCCC2)N(C(=O)CCl)c2cccc(Cl)c2)cc1 (centres undefined),"inconclusive: 23.1 µM [inhibitor, partial curve]",–

# The list continues.

SMILES,Potency,"activity change, negative = inhibition"
O=C1c2ccccc2C(=O)N1CCC(=O)N1CCCc2ccccc21,"inconclusive: 23.1 µM [activator, partial curve]",–
O=C(NC1CCCCC1)C(c1cccs1)N(C(=O)Cc1c[nH]c2ccccc12)c1ccc(F)cc1 (centres undefined),–,inactive: -16.3%
Cc1ccc2oc(-c3cccc(NC(=O)c4ccc(Br)o4)c3C)nc2c1,"inconclusive: 18.4 µM [activator, single point]",–
Cc1ccc2oc(C(=O)N3CCN(c4cccc(C)n4)CC3)c(C)c2c1,"inconclusive: 1.26 µM [activator, single point]",–
NS(=O)(=O)c1ccc(CCNCc2cc(Cl)ccc2OCc2ccccc2)cc1,–,inactive: -12.2%
O=C(Nc1ccc(F)cc1)c1c(Cl)nc2ccccn12,"inconclusive: 14.6 µM [activator, partial curve]",–
COc1ccc(F)cc1CSc1nnnn1-c1ccc(O)cc1,–,inactive: 0%
Cc1nc(-c2ccccc2)sc1-c1ccnn1C,"inconclusive: 6.51 µM [activator, partial curve]",–
CCC(C)NC(=O)CSc1nc2c(sc(=S)n2Cc2ccco2)c(=O)n1-c1ccccc1 (centres undefined),"inconclusive: 20.6 µM [inhibitor, single point]",–
Cc1cccnc1Nc1nc(-c2ccc(O)cc2O)cs1,"inconclusive: 13 µM [activator, partial curve]",–
CNc1snc(C)c1C(=O)OCC(=O)Nc1ccc(C)cc1F,active: 13 µM,–
COC(=O)[C@H](Cc1ccccc1)NC(=O)c1ccc2ccccc2n1,"inconclusive: 16.4 µM [activator, partial curve, poor fit]",–
CCN1C(=O)[C@@H]2[C@@H](c3ccc(-c4ccc(F)cc4)cc3)N3CCCC[C@@]3(C(=O)OC)[C@@H]2C1=O,"inconclusive: 11.2 µM [inhibitor, single point]",–
O=[N+]([O-])c1ccc(N/N=C/c2ccccc2O)cc1,"inconclusive: 18.3 µM [activator, partial curve]",–
COc1ccccc1NS(=O)(=O)c1ccc(C(=O)OCC(=O)NCc2ccco2)cc1,–,inactive: -0.493%
COc1cc(C(=O)NCC(=O)N2CCN(S(=O)(=O)c3ccccc3C(F)(F)F)CC2)cc(OC)c1OC,"inconclusive: 25.9 µM [inhibitor, single point]",–
Cc1cc(=O)oc2c1ccc1oc(/C(=N/O)c3ccccc3)c(C)c12,active: 16.4 µM,–
O=C(NNC1=C(C(=O)C(F)(F)F)CCC1)c1ccccc1O,"inconclusive: 32.6 µM [inhibitor, single point]",–
COc1cccc(COC(=O)C2CCN(S(=O)(=O)c3ccc(F)cc3)CC2)c1OC,–,inactive: -3.8%
Cc1nn(C)c(C(=O)NNC(=O)Nc2cccc(C(F)(F)F)c2)c1Cl,"inconclusive: 20.6 µM [inhibitor, partial curve]",–
COc1ccc(C(C)=O)cc1CN(c1ccccc1OC)S(=O)(=O)c1cccs1,"inconclusive: 29.1 µM [inhibitor, partial curve, poor fit]",–
CCn1c(SCC(=O)O)nnc1-c1ccccc1OC,"inconclusive: 3.26 µM [activator, partial curve]",–
O=C(N/N=C/c1ccc(F)c(F)c1)c1cc2c(s1)-c1ccccc1CC2,–,inactive: 10.1%

SMILES,Potency,"activity change, negative = inhibition"
CN(CCc1ccccc1)C(=O)c1ccc(NC(=O)Cc2ccc([N+](=O)[O-])cc2)cc1,"inconclusive: 23.1 µM [inhibitor, single point]",–
COc1ccc(C(CNC(=O)Nc2ccc(Cl)cc2)N2CCN(C)CC2)cc1 (centres undefined),–,inactive: 12.5%
CC1CN(C(=O)CSc2cn(CC(=O)N3CCOCC3)c3ccccc23)CC(C)O1 (centres undefined),"inconclusive: 11.6 µM [activator, partial curve, poor fit]",–
Cc1cc(C)c(NC(=O)CNC(=O)c2ccccc2SCC(=O)N2CCCC2)c(C)c1,"inconclusive: 23.1 µM [inhibitor, single point]",–
CCOc1ccc(/C=N/NC(=O)c2ccc(CSc3nc4ccccc4[nH]3)cc2)cc1,–,inactive: -9.11%
O=C(Nc1ccccc1C(F)(F)F)c1cc2ccccc2o1,"inconclusive: 9.2 µM [activator, partial curve]",–
COc1cc(CCC(=O)Nc2c(C(=O)N3CCN(c4ccccc4OC)CC3)oc3ccccc23)on1,"inconclusive: 16.4 µM [inhibitor, partial curve]",–
O=c1c(-c2ccc3c(c2)OCCO3)coc2cc(OC3OC(CO)C(O)C(O)C3O)ccc12 (centres undefined),"inconclusive: 1.3 µM [activator, partial curve]",–
O=C(c1ccccc1)N1CCN(c2ccc([N+](=O)[O-])c(NCC3CCCO3)c2)CC1 (centres undefined),"inconclusive: 23.1 µM [inhibitor, single point]",–
COc1ccc(NC(=O)CC2CCCC2)cc1S(=O)(=O)N1CCCCC1,"inconclusive: 29.1 µM [inhibitor, single point]",–
Cc1ccc(C)c(C2NC(=O)c3ccccc3N2)c1 (centres undefined),–,inactive: -11.5%
COc1ccc(C(CNC(=O)c2cc3c(s2)CCC(C)C3)N2CCCC2)cc1 (centres undefined),"inconclusive: 18.3 µM [activator, partial curve, poor fit]",–
CSc1ccc(Cl)c(C(=O)NCCOc2cc(C(C)C)ccc2C)c1,–,inactive: -22.8%
COc1ccccc1N1CCN(C2CCCN(C(=O)c3oc(C)cc3C)C2)CC1 (centres undefined),"inconclusive: 7.3 µM [inhibitor, partial curve, poor fit]",–
CCn1c(COC(=O)CNC(=O)c2ccccc2F)nc2cc(S(=O)(=O)N(C)C)ccc21,–,inactive: 3.8%
Cc1c(OCc2ccc([N+](=O)[O-])cc2)ccc2c3c(c(=O)oc12)CCC3,"inconclusive: 1.64 µM [activator, full curve]",–
Nc1c(Cl)ncnc1NCCO,inactive,–
O=C(CSCc1cccs1)N1CCCC1,"inconclusive: 11.2 µM [activator, partial curve, poor fit]",–
CCCOc1ccc(N/C=C/C(=O)C(C)(C)C)cc1,"inconclusive: 14.6 µM [activator, partial curve, poor fit]",–
COc1cccc(CN(C)C(=O)c2ccccc2Sc2ccccc2C#N)c1OC,"inconclusive: 0.82 µM [activator, partial curve, poor fit]",–
Cc1ccccc1N(CC(=O)Nc1ccccc1C(=O)NCc1ccco1)S(=O)(=O)c1ccccc1,"inconclusive: 18.4 µM [inhibitor, single point]",–
COc1ccccc1Nc1ccncc1[N+](=O)[O-],"inconclusive: 29.1 µM [inhibitor, single point]",–
COc1ccccc1NC(=O)c1ccc(SCC(=O)NCc2ccccc2Cl)c([N+](=O)[O-])c1,"inconclusive: 29.1 µM [inhibitor, partial curve, poor fit]",–
